Source: PubChem BioAssay (Tox21)
Where “and” joins values, the source holds several entries; their conditions need not be identical. Equal values may be shown once. The source calls these results inconclusive, neither active nor inactive. Unless noted, calls follow the shape of the dose curve; as a rule, active = well fitted curve in the direction sought with a large enough effect in the repeat runs; inconclusive = weak or mixed curves; inactive = no such curve, though single readings can be large; an effect the other way counts as inactive or inconclusive.

Protein sequences, listed by entry. Tags and fused reporters are not part of them.
UniProt P35869, whole entry: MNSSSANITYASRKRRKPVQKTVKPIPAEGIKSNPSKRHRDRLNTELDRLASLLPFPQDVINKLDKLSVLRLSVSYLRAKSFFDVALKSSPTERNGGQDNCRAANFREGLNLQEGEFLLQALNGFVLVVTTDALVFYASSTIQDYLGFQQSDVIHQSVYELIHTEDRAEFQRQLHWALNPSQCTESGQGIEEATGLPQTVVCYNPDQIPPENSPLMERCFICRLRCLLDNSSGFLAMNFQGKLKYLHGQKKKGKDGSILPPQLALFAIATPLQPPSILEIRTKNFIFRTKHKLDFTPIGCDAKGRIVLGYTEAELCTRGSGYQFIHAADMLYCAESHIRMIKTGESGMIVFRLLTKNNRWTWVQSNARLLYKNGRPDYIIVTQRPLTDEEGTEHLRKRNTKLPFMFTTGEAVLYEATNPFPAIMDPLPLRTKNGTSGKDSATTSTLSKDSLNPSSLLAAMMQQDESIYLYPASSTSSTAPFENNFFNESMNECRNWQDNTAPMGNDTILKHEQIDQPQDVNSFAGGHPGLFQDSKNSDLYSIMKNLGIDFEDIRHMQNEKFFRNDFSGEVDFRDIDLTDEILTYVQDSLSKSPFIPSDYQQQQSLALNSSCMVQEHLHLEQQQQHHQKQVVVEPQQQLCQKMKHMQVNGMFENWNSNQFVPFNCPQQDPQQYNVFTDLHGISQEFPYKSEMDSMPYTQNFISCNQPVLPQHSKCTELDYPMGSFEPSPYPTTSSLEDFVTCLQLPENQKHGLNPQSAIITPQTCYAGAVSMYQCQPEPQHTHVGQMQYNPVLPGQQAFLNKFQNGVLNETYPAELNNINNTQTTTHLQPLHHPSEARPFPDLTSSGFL
UniProt P19793, whole entry: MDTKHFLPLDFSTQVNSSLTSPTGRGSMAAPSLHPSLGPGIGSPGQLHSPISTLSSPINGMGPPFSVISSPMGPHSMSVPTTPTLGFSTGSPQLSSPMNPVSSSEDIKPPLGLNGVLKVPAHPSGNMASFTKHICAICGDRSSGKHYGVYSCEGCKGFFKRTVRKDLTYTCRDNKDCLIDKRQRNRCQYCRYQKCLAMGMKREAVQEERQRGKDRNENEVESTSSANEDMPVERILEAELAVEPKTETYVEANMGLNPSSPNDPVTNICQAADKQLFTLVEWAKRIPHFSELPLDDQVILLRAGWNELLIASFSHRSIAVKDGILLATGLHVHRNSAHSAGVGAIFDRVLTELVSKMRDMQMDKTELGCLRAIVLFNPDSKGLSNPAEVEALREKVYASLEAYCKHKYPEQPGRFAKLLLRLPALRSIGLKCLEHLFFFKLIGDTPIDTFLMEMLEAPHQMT
UniProt P06401, whole entry: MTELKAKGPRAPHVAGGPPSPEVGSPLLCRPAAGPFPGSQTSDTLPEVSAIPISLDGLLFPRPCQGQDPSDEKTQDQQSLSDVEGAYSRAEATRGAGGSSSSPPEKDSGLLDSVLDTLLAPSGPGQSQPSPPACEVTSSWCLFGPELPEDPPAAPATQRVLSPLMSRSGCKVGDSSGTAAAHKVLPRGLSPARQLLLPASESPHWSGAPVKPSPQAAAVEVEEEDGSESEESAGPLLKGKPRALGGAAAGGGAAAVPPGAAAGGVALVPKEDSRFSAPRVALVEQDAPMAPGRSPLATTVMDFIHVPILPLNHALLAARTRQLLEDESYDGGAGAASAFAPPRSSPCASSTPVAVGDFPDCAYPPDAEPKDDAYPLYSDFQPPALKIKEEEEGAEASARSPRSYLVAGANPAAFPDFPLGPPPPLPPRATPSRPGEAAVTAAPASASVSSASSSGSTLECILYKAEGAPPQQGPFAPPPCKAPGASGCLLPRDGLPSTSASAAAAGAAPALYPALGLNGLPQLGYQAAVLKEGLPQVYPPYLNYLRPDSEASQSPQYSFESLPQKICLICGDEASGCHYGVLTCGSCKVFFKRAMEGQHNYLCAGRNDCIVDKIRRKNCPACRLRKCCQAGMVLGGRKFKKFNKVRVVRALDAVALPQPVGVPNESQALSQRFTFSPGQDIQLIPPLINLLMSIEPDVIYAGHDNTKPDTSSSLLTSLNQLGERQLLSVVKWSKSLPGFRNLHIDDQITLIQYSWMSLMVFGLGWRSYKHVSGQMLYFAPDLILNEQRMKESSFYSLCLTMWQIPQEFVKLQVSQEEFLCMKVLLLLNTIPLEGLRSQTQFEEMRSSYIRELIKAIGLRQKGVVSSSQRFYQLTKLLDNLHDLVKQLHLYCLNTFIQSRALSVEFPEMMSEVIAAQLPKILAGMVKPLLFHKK

How the values were obtained:
[1] = qHTS assay for small molecule agonists of the p53 signaling pathway (AID 651631; calls by dose curve; also: nearly all actives have a fitted effect of over 15% in size); conditions: HCT-116 p53RE-bla reporter, beta-lactamase FRET ratio, 16 h
Summary of the method: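 HCT-116 cells carrying a beta-lactamase reporter under p53 response elements were dosed with compound for 16 h at 37 °C. LiveBLAzer B/G FRET substrate was then added for 2 h at room temperature, and fluorescence intensity was read to detect pathway agonism.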

[2] = qHTS assay for identifying genotoxic compounds that show differential cytotoxicity against isogenic chicken DT40 cell lines with known DNA damage response pathways - Rad54/Ku70 mutant cell line (AID 743015); conditions: DT40 Rad54/Ku70 mutant viability, CellTiter-Glo, 40 h; also: nearly all actives have a fitted effect of over 60% in size
[3] = qHTS assay to identify small molecule antagonists of the androgen receptor (AR) signaling pathway - cell viability counter screen (AID 743033; also: nearly all actives have a fitted effect of over 45% in size); conditions: AR-bla HEK293 viability, CellTiter-Glo luminescence, 16 h
[4] = qHTS assay to identify small molecule antagonists of the thyroid receptor (TR) signaling pathway - cell viability counter screen (AID 743064); conditions: GH3.TRE-Luc viability, CellTiter-Fluor, 24 h; also: nearly all actives have a fitted effect of over 50% in size
Summary of the method: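 GH3.TRE-Luc rat pituitary cells dosed after 4 hr plating, co-stimulated with T3 at 1 nM final, incubated 23.5 h at 37 C. Viability measured in the same wells by CellTiter-Fluor fluorescence after 30 min further at 37 C.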

[5] = qHTS assay to identify small molecule antagonists of the thyroid receptor (TR) signaling pathway (AID 743065); conditions: GH3.TRE-Luc, T3-stimulated luciferase inhibition, 23.5 h; also: nearly all actives have a fitted effect of over 55% in size
Summary of the method: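 GH3.TRE-Luc rat pituitary cells carrying two TR response elements driving luciferase were plated for 4 h, given compound plus 1 nM T3 (final), and incubated 23.5 h at 37 C. ONE-Glo luminescence measured reporter inhibition; CellTiter-Fluor fluorescence tracked cytotoxicity.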

[6] = qHTS assay to identify small molecule antagonists of the estrogen receptor alpha (ER-alpha) signaling pathway using the BG1 cell line - cell viability counter screen (AID 743081); conditions: BG1Luc4E2 viability, CellTiter-Fluor, 22 h;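 also: compound given together with 17beta-estradiol as the ER stimulus; nearly all actives have a fitted effect of over 45% in size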
[7] = molecular target: Aryl hydrocarbon receptor (Homo sapiens) (UniProt P35869); assay: qHTS assay to identify small molecule that activate the aryl hydrocarbon receptor (AhR) signaling pathway (AID 743085); conditions: HepG2 AhR-luc (HG2L7.5c1), luciferase, 24 h; also: nearly all actives have a fitted effect of over 15% in size
[8] = qHTS assay for small molecule agonists of the antioxidant response element (ARE) signaling pathway (AID 743202; active = well fitted activation curve with a large enough effect in the signal ratio in the repeat runs, not every such curve was filed as active; inconclusive = weak or mixed curves, or effect the other way; inactive = no such curve, though single readings can be large or run the other way; the % refers to the signal ratio); conditions: HepG2 ARE-bla reporter, beta-lactamase FRET, 16 h
Summary of the method: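 Steps: seed ARE-bla HepG2 cells (2,000/well); incubate 5 h at 37 C; add compounds by pin tool; incubate 16 h at 37 C; add FRET substrate; read fluorescence after 2 h at RT.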

[9] = qHTS assay for small molecule activators of the heat shock response signaling pathway (AID 743210; active = well fitted activation curve with a large enough effect in the signal ratio in the repeat runs, with a control signal flat, not every such curve was filed as active; inconclusive = weak or mixed curves; the % refers to the signal ratio); conditions: HeLa HSE-bla reporter, beta-lactamase ratio, 5 h
Summary of the method: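 Activation of heat shock element-controlled beta-lactamase expression is measured in HeLa cells by LiveBLAzer FRET fluorescence, with compound exposure lasting 5 h at 37 C and substrate loading 2.5 h at room temperature.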

[10] = qHTS assay to identify small molecule antagonists of the peroxisome proliferator-activated receptor delta (PPARd) signaling pathway - cell viability counter screen (AID 743213); conditions: PPARd-bla HEK293H viability, CellTiter-Glo luminescence, 17 h; also: nearly all actives have a fitted effect of over 50% in size
Summary of the method: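 PPARd-bla HEK293H cells were treated with compounds plus agonist L165041 (300 nM final) for 17 h at 37 C. Viability was then read in the same wells by CellTiter-Glo luminescence after 30 min at room temperature.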

[11] = qHTS assay to identify small molecule agonists of the NFkB signaling pathway (AID 1159509; active = well fitted curve in the direction sought with a large enough effect in the signal ratio in the repeat runs, not every such curve was filed as active; inconclusive = weak or mixed curves, or a change in a side signal; inactive = no such curve, though single readings can be large or run the other way; the % refers to the signal ratio); conditions: NFkB-bla ME-180 cells, beta-lactamase FRET ratio, 5 h
Summary of the method: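 Agonist activity was read as beta-lactamase-driven FRET change (460 and 530 nm emission, 405 nm excitation) following 1.5 hr substrate loading at room temperature. Beforehand, ME-180 NFkB-bla reporter cells were treated with compounds for 5 hr at 37 C.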

[12] = qHTS assay to identify small molecule agonists of the NFkB signaling pathway - cell viability counter screen (AID 1159515; calls by dose curve; also: nearly all actives have a fitted effect of over 55% in size); conditions: NFkB-bla ME-180 viability, CellTiter-Glo luminescence, 5 h
Summary of the method: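 Plate 2,000 NFkB-bla ME-180 cells/well; incubate overnight. Add compounds, 5 hr at 37 C. Add FRET substrate, 1.5 hr RT. Add CellTiter-Glo, 30 min RT; read luminescence.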

[13] = qHTS assay to identify small molecule agonists of the endoplasmic reticulum stress response signaling pathway (AID 1159516; active = well fitted activation curve with a large enough effect in the signal ratio in the repeat runs, not every such curve was filed as active; inconclusive = weak or mixed curves, or effect the other way; the % refers to the signal ratio); conditions: ESRE-bla HeLa, ER stress beta-lactamase reporter, 5 h
Summary of the method: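 Beta-lactamase expression from the ER stress response element in HeLa reporter cells is quantified with the LiveBLAzer B/G FRET substrate, read at 405 nm excitation after 2 hr at room temperature, following 5 hr compound treatment at 37 C.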

[14] = qHTS assay to identify small molecule agonists of the endoplasmic reticulum stress response signaling pathway - cell viability counter screen (AID 1159517; calls by dose curve; also: nearly all actives have a fitted effect of over 50% in size); conditions: ESRE-bla HeLa viability, CellTiter-Glo luminescence, 5 h
Summary of the method: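 Cpd-treated ESRE-bla HeLa (5 hr, 37 C) → LiveBLAzer 2 hr RT → CellTiter-Glo 30 min RT → luminescence.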

[15] = qHTS assay to identify small molecule agonists of the AP-1 signaling pathway (AID 1159526; calls by dose curve); conditions: ME-180 (cervical carcinoma) AP-1-bla reporter, beta-lactamase FRET ratio, 5 h
[16] = molecular target: Retinoic acid receptor RXR-alpha (Homo sapiens) (UniProt P19793); assay: qHTS assay to identify small molecule agonists of the RXR signaling pathway (AID 1159527; calls by dose curve; also: nearly all actives have a fitted effect of over 35% in size); conditions: HEK293T RXRa-UAS-bla, beta-lactamase ratio, 16 h; activation: at 35.3 µM (top of the series)
Summary of the method: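 GeneBLAzer RXR-alpha-UAS-bla HEK 293T cells in 2% charcoal-stripped FBS medium were exposed to compounds for 16 hr at 37 C in agonist mode. Beta-lactamase reporter read as 460/530 nm FRET ratio after 2 hr substrate loading.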

[17] = qHTS assay to identify small molecule antagonists of the retinoic acid receptor (RAR) signaling pathway (AID 1159552; also: nearly all actives have a fitted effect of over 50% in size); conditions: C3RL4 RARE luciferase reporter, retinol-stimulated, 6 h
Summary of the method: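 Retinol signaling pathway inhibitors screened in C3RL4 RARE-luciferase reporter cells seeded overnight at 37 C, then compounds added with 1 uM (final) retinol as pathway substrate. After 6 hr at 37 C, luciferase luminescence read after 30 min at room temperature.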

[18] = qHTS assay to identify small molecule agonists of the retinoic acid receptor (RAR) signaling pathway (AID 1159553); conditions: C3RL4 RARE luciferase reporter, agonist, 6 h
Summary of the method: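 Compounds dissolved in DMSO were pinned onto C3RL4 cells seeded the previous day, and plates were held 6 hr at 37 C. RARE-driven luciferase output was then read by luminescence.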

[19] = qHTS assay to identify small molecule agonists of the hypoxia (HIF-1) signaling pathway - cell viability counter screen (AID 1224844; calls by dose curve; also: nearly all actives have a fitted effect of over 50% in size); conditions: HRE-bla ME-180 viability, CellTiter-Glo luminescence, 17 h
Summary of the method: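 Same wells as the HIF-1 reporter screen; ME-180 cells carrying HRE-bla, 17 hr treatment at 37C; CellTiter-Glo luminescence read after 30 min at room temperature.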

[20] = qHTS assay to identify small molecule agonists of the hypoxia (HIF-1) signaling pathway (AID 1224846; active = well fitted activation curve with a large enough effect in the signal ratio in the repeat runs, not every such curve was filed as active; inconclusive = weak or mixed curves; the % refers to the signal ratio); conditions: HRE-bla ME-180 cells, beta-lactamase ratio, 17 h
Summary of the method: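 In ME-180 cells bearing an HRE-bla construct, 17 h treatment with DMSO-dissolved compounds at 37C was followed by CCF4-AM loading to quantify reporter induction.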

[21] = qHTS RealTime-Glo MT Cell Viability Assay in HEK293 cells - 16 hour (AID 1224872); conditions: RealTime-Glo luminescence; also: nearly all actives have a fitted effect of over 50% in size
Summary of the method: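 HEK293 cells were seeded at 600 cells/well together with NanoLuc luciferase and cell-permeant prosubstrate, preincubated 5 h at 37 C/5% CO2, then given compound in DMSO by pintool. Luminescence from viable-cell prosubstrate reduction was read repeatedly over 40 h.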

[22] = qHTS RealTime-Glo MT Cell Viability Assay in HEK293 cells - 40 hour (AID 1224874); conditions: RealTime-Glo luminescence; also: nearly all actives have a fitted effect of over 50% in size
Summary of the method: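 Measured as luminescence from the same continuously cultured HEK293 wells at successive time points (0, 8, 16, 24, 32, 40 h) after compound addition. Reagent present from seeding; dosing at 5 h; incubation 37 C.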

[23] = A CellTox Green Cytotoxicity Assay to monitor cytotoxicity in HEK293 cells - 24 hour (AID 1224875); conditions: CellTox Green fluorescence; also: nearly all actives have a fitted effect of over 45% in size
Summary of the method: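 Homogeneous no-lysis format: HEK293 cell suspension mixed with CellTox Green reagent, seeded, incubated 5 h at 37 C/5% CO2, then dosed by pintool with compound in DMSO.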

[24] = qHTS assay to identify small molecule antagonists of the androgen receptor (AR) signaling pathway using the MDA cell line in the presence of 0.5 nM R1881 - cell viability counter screen (AID 1259242); conditions: MDA-kb2 viability, CellTiter-Fluor protease fluorescence, 16 h; also: nearly all actives have a fitted effect of over 45% in size
Summary of the method: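 Human breast carcinoma MDA-kb2 cells, cultured without CO2, receive compounds alongside 0.5 nM (final) R1881 agonist. After 16 hr at 37C, viability is taken as live-cell protease signal.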

[25] = qHTS assay to identify small molecule agonists of the sonic hedgehog signaling (Shh) pathway - cell viability counter screen (AID 1259366); conditions: NIH/3T3 Gli1-Luc viability, CellTiter-Fluor, 24 h; also: nearly all actives have a fitted effect of over 50% in size
Summary of the method: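 NIH/3T3-derived Gli1-Luc reporter cells, 2,000 per well, received compound after 4 h and were treated about 23 h at 37C. Viability measured in the same wells by CellTiter-Fluor fluorescence after 1 h.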

[26] = qHTS assay to identify small molecule agonists of the androgen receptor (AR) signaling pathway in the presence of an antagonist - cell viability counter screen (AID 1259379); conditions: MDA-kb2 viability, CellTiter-Fluor, 16 h; also: nearly all actives have a fitted effect of over 25% in size
Summary of the method: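 Counter screen for cell viability run in parallel with the AR agonist-mode luciferase assay. MDA-kb2 cells were co-treated with nilutamide (3.0uM final) and compounds, then incubated 16 hr at 37C, and CellTiter-Fluor fluorescence was measured.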

[27] = molecular target: Progesterone receptor (Homo sapiens) (UniProt P06401); assay: qHTS assay to identify small molecule antagonists of the progesterone receptor (PR) signaling pathway (AID 1346795; active = well fitted inhibition curve with a large enough effect in the signal ratio in the repeat runs, not every such curve was filed as active; inconclusive = weak or mixed curves; the % refers to the signal ratio); conditions: PR-UAS-bla HEK293T, beta-lactamase FRET ratio, 16 h; series mostly up to 92.4 µM
Summary of the method: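 PR-UAS-bla HEK293T cells with beta-lactamase reporter under UAS control, in 2% charcoal-stripped FBS, treated with compounds plus 1 nM promegestone (R5020, final) for 16 hr at 37C. Read-out: FRET beta-lactamase substrate fluorescence after 2 hr at room temperature.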

[28] = qHTS assay to identify small molecule agonists of the TGF-beta/Smad signaling pathway (AID 1346859; active = well fitted activation curve with a large enough effect in the signal ratio in the repeat runs, not every such curve was filed as active; inconclusive = weak or mixed curves; the % refers to the signal ratio); conditions: SBE-bla HEK293T, TGF-beta/Smad beta-lactamase reporter, 5 h
Summary of the method: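 SBE-bla HEK293T cells plated overnight, then compound exposure for 5 h at 37 C. Beta-lactamase reporter read with LiveBLAzer B/G FRET substrate after 2 h at room temperature, fluorescence at 405 nm excitation, 460/530 nm emission.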

[29] = Caspase-3/7 induction in CHO-K1 cells by small molecules, qHTS cell viability counter screen (AID 1346979); conditions: CellTiter-Fluor fluorescence, 17 h; also: nearly all actives have a fitted effect of over 35% in size
Summary of the method: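 Wild-type CHO-K1 cells (1,500/well) treated with compound after 5 h plating; after 16 h at 37C, viability read as CellTiter-Fluor fluorescence following 1 h reagent incubation, in the same wells as the caspase read.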

Measured: Potency
Potency is read from the fitted curve at half-maximal effect.

Cc1ccc([N+](=O)[O-])c([N+](=O)[O-])c1
inconclusive: [1] 68.6 µM | [2] 68.6 µM | [3] 56.1 µM | [4] 78.5 µM | [5] 61.1 µM | [6] 78.5 µM | [7] 43.3 µM | [8] 27.3 µM | [9] 36.7 µM | [10] 62.9 µM | [11] 56.1 µM | [12] 56.1 µM | [13] 62.9 µM | [14] 56.1 µM | [15] 44.6 µM | [16] 56.1 µM | [17] 34.4 µM | [18] 15.7 µM | [19] 62.9 µM | [20] 56.1 µM | [21] 19.9 µM | [22] 15.8 µM and 17.4 µM | [23] 39.7 µM | [24] 49.5 µM | [25] 68.6 µM | [26] 54.5 µM | [27] 62.4 µM | [28] 44.6 µM | [29] 68.6 µM
